{
  "source": "PubChem BioAssay AID1347076",
  "about": "(National Center for Advancing Translational Sciences (NCATS), 2019)",
  "note": "The campaign covered roughly 400,000 compounds. About 13,000 (3.2%) were called active. This list was built around the results that the source calls inconclusive (neither active nor inactive); the mix of calls is not that of the screen. Calls follow the shape of the dose curve; as a rule, active = well fitted cell-killing curve with a large enough effect; inconclusive = small, poorly fitted or top-dose-only effect, or effect the other way; inactive = flat fitted curve, though single readings scatter. A potency beside an inconclusive call is a rough fit, not a confirmed value. % is scaled to controls: 0 for no effect and ±100 for the full control effect; potency is read from the fitted curve at half-maximal effect.",
  "data": [
    {"experiment": "qHTS assay for MDR1-selective chemotherapeutics: Primary screen using the drug-selected MDR subline cells KB-V1; also: nearly all actives have a fitted effect of over 60% in size", "details": "KB-V1 MDR cells viability, CellTiter-Glo, 72 h; activity change, negative = cytotoxicity: at 46.1 µM (top of the series)", "outline": "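In this primary screen, KB-V1 cells overexpressing P-gp are incubated with library compounds (lowest to highest concentration) for 72 h at 37 degrees C before a luminescent ATP viability read.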", "values": [
      {"compound": "CCCNC(=O)N1C[C@H](O)COC[C@H]2O[C@@H](CC(=O)N[C@@H]3CCN(Cc4ccccc4)C3)CC[C@@H]21", "Potency": "inactive"},
      {"compound": "CCCCCCN1C(=O)C(O)=C(C(C)=O)C1c1ccc(Cl)cc1", "note": "(centres undefined)", "Potency": "inconclusive: 16.4 µM [cytotoxic, partial curve]"},
      {"compound": "COc1ccc(OC)c(C2CC(=O)c3c([nH]c(C(=O)OC(C)C)c3C)C2)c1", "note": "(centres undefined)", "Potency": "active: 0.517 µM"},
      {"compound": "Cc1ccc(NC(=O)C2CC2)cc1S(=O)(=O)N1CCOCC1", "Potency": "inconclusive: 29.1 µM [rising, single point]"},
      {"compound": "CCCCN(Cc1cc2cc(C)ccc2[nH]c1=O)C(=O)c1ccccn1", "Potency": "inconclusive: 9.2 µM [cytotoxic, partial curve]"},
      {"compound": "CCc1nnc2c(N3CCN(c4cc(Cl)ccc4C)CC3)nc3ccccc3n12", "Potency": "inconclusive: 29.1 µM [rising, single point]"},
      {"compound": "CC1CCN(C(=O)c2cc(-c3ccc(Br)cc3)on2)CC1", "Potency": "inactive"},
      {"compound": "Cc1ccc(/C=N/NC(=O)c2ccc(-c3ccccc3)cc2)o1", "Potency": "inconclusive: 2.91 µM [cytotoxic, partial curve, poor fit]"},
      {"compound": "CCOC(=O)N1CCN(C(=S)Nc2ccccc2C)CC1", "Potency": "inconclusive: 20.6 µM [cytotoxic, partial curve, poor fit]"},
      {"compound": "Cn1c(=O)oc2cc(S(=O)(=O)Nc3cccc(C(=O)O)c3)ccc21", "Potency": "inactive"},
      {"compound": "C/C(=N\\NC(=O)c1ccccc1OCc1ccc(F)cc1)c1ccccn1", "Potency": "inconclusive: 4.11 µM [cytotoxic, full curve, poor fit]"},
      {"compound": "CCCCNS(=O)(=O)c1ccc(NC(=O)c2c(-c3ccccc3Cl)noc2C)cc1", "Potency": "active: 20.6 µM"},
      {"compound": "CCCC(C)NC(=O)c1cccc(Oc2ccccc2)c1", "note": "(centres undefined)", "Potency": "inconclusive: 25.9 µM [cytotoxic, single point]"},
      {"compound": "CC(OC(=O)c1ccccc1Nc1ccc(SC(F)F)cc1)C(N)=O", "note": "(centres undefined)", "Potency": "inconclusive: 18.4 µM [cytotoxic, single point]"},
      {"compound": "Cn1ccc(C(=O)Nc2cccnc2Cl)n1", "Potency": "inconclusive: 29.1 µM [rising, single point]"},
      {"compound": "COc1ccc2c(c1)c(N1CCCC1=O)c(C(=O)Nc1ccccc1C(F)(F)F)n2C", "Potency": "inconclusive: 4.61 µM [cytotoxic, partial curve, poor fit]"},
      {"compound": "COc1ccc(C2=NC(c3ccncc3)=Nc3ccc(OC)cc3N2)cc1", "Potency": "inactive"},
      {"compound": "CCOC(=O)c1c(-c2cccs2)csc1NC(=O)CCCC(=O)O", "Potency": "inconclusive: 10.3 µM [rising, partial curve, poor fit]"},
      {"compound": "CC(C)c1ccc(N2C(=O)CSC23C(=O)N(C)c2ccccc23)cc1", "note": "(centres undefined)", "Potency": "inconclusive: 16.4 µM [cytotoxic, single point]"},
      {"compound": "Cc1ccc(NC2=C(Cl)C(=O)OC2OC(C)C)cc1", "note": "(centres undefined)", "Potency": "inactive"},
      {"compound": "COC(=O)c1ccc(CN2CCC(Oc3cccc(C(=O)N4CCCC4)c3)CC2)cc1", "Potency": "inconclusive: 3.26 µM [cytotoxic, full curve]"},
      {"compound": "Cc1cc(O)cc(O)c1/C=N/NC(=O)c1ccc2c(c1)OCCO2", "Potency": "inconclusive: 20.6 µM [cytotoxic, single point]"},
      {"compound": "O=C(/C=C/c1ccc(OC(F)F)cc1)Nc1cccc(S(=O)(=O)N2CCOCC2)c1", "Potency": "inconclusive: 5.8 µM [cytotoxic, partial curve, poor fit]"},
      {"compound": "COc1cccc(CNC(=O)Cc2c(C(=O)O)c(C)cn2C)c1", "Potency": "inactive"},
      {"compound": "NC(=O)N/N=C/CCc1ccccc1", "Potency": "inconclusive: 0.731 µM [rising, partial curve]"},
      {"compound": "COc1cc(OC)cc(C(=O)N[C@H](C(=O)NC2CCCc3ccccc32)C(C)C)c1", "note": "(some centres undefined)", "Potency": "inconclusive: 0.731 µM [cytotoxic, partial curve, poor fit]"},
      {"compound": "O=c1cnnc(N/N=C/c2ccc3c(c2)OCO3)[nH]1", "Potency": "active: 7.31 µM"},
      {"compound": "CC1CCCN(C(=O)CN(c2ccccc2)S(=O)(=O)c2ccc(F)cc2)C1", "note": "(centres undefined)", "Potency": "inconclusive: 32.6 µM [cytotoxic, single point]"},
      {"compound": "COc1ccc(NC(=O)Nc2nnc(CC(=O)NCc3ccccc3)s2)cc1", "Potency": "inconclusive: 3.26 µM [rising, full curve]"},
      {"compound": "O=C(CC1SC(=Nc2ccc(OC(F)F)cc2)N(CCC2=CCCCC2)C1=O)Nc1ccccc1F", "note": "(centres undefined)", "Potency": "inconclusive: 18.4 µM [cytotoxic, single point]"},
      {"compound": "COc1cccc(NC(=O)C2(C)CCN2Cc2ccc(OC)c3ccccc23)c1", "note": "(centres undefined)", "Potency": "inconclusive: 18.4 µM [cytotoxic, partial curve]"},
      {"compound": "O=C1C=C(c2ccccc2)OC2(CCCC2)O1", "Potency": "inactive"},
      {"compound": "O=C(NCc1cccs1)c1ccc(CSc2nc3cccnc3n2Cc2ccccc2F)cc1", "Potency": "inactive"},
      {"compound": "CCCN1C[C@@H](C)[C@@H](OC)CN(C)C(=O)c2ccc(NC(=O)c3cccc(F)c3)cc2OC[C@H]1C", "Potency": "inactive"},
      {"compound": "CN(C1CCCCC1)S(=O)(=O)c1ccc(SCC(=O)C(C)(C)C)nc1", "Potency": "inconclusive: 29.1 µM [cytotoxic, single point]"},
      {"compound": "O=C(O)c1ccccc1-c1ccccc1C(=O)Nc1ccccc1Br", "Potency": "inconclusive: 14.6 µM [rising, partial curve, poor fit]"},
      {"compound": "C(=N\\Nc1ccc2ccccc2n1)/c1ccc2c(c1)OCO2", "Potency": "inconclusive: 20.6 µM [cytotoxic, single point]"},
      {"compound": "O=C(N/N=C/c1ccc(OC(F)F)cc1)c1ccc(Br)cc1", "Potency": "inconclusive: 7.31 µM [cytotoxic, partial curve]"},
      {"compound": "O=C(Cc1ccccc1)NC(c1ccco1)c1cc(Cl)c2cccnc2c1O", "note": "(centres undefined)", "Potency": "inactive"},
      {"compound": "COc1ccc(Cl)cc1S(=O)(=O)N1CCC(C(=O)NCc2ccccn2)CC1", "Potency": "inactive"},
      {"compound": "O=C(CC1Oc2ccccc2NC1=O)NCCCN1CCN(Cc2ccccc2)CC1", "note": "(centres undefined)", "activity change, negative = cytotoxicity": "inconclusive: 18.9%"},
      {"compound": "CCOc1ccccc1C(=O)N(CN1CCCC1=O)c1cccc(Cl)c1", "Potency": "active: 11.6 µM"},
      {"compound": "COc1ccc(OC)c(S(=O)(=O)N2CCCC2C(=O)N2CCc3ccccc3C2)c1", "note": "(centres undefined)", "Potency": "inconclusive: 16.4 µM [cytotoxic, partial curve]"},
      {"compound": "COc1ccc(-c2csc3ncnc(N4CCN(S(=O)(=O)c5cccs5)CC4)c23)cc1", "Potency": "inconclusive: 16.4 µM [cytotoxic, single point]"}
    ]}
  ]
}
